Laboratory results: publication PMC9909992
Results are given in words; binding and its absence hold for the method and conditions named. Binding seen in cells or lysates may run through a third protein. Some results given as binding are weak or reduced against the parent protein; the word gives no strength.

Target: T1, CD73 (ecto-5'-nucleotidase, NT5E) (rat (endogenous in HSC-T6)) (UniProt P21588)
T1 sequence: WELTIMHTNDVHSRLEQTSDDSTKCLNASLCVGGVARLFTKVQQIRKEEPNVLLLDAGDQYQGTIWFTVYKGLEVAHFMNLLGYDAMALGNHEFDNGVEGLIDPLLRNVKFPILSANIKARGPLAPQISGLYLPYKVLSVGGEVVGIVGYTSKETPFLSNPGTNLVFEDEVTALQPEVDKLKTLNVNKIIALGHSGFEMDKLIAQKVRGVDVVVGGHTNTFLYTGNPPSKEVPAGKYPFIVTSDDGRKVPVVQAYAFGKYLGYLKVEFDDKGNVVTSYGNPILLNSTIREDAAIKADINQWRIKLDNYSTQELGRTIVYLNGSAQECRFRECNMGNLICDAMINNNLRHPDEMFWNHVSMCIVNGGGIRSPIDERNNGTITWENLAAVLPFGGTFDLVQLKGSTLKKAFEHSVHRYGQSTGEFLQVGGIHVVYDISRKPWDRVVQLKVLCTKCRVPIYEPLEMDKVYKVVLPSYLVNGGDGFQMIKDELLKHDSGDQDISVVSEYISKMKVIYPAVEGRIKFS
Test: co-IP; HSC-T6 cell lysate incubated with anti-CD73 antibodies for 2 h, protein A/G agarose beads overnight at 4 °C, immune complexes blotted for AURKA

B1: Aurora kinase A (AURKA) (enzyme, UniProt P59241 1-397)
chain: MDRCKENCVSRPVKSTVPFGPKRVLVTEQIPSQHPGSASSGQAQRVLCPSNSQRVPPQAQKPVAGQKPVLKQLPAASGPRPASRLSNPQKSEQPQPAASGNNSEKEQTSIQKTEDSKKRQWTLEDFDIGRPLGKGKFGNVYLAREKQSKFILALKVLFKVQLEKAGVEHQLRREVEIQSHLRHPNILRLYGYFHDATRVYLILEYAPLGTVYRELQKLSKFDEQRTATYITELANALSYCHSKRVIHRDIKPENLLLGSNGELKIADFGWSVHAPSSRRTTLCGTLDYQPPEMIEGRMHDEKVDLWSLGVLCYEFLVGMPPFEAHTYQETYRRISRVEFTFPDFVTEGARDLISRLLKHNSSQRLTLAEVLEHPWIKANSSKPPTGHNSKEATSKSS
In the case of B1, the binding is reported as “binds”.
